# Screening data, single-dose tests

Results are given as percent effect.
How 0% and 100% were set is not recorded. Most values in the screen are low, and negative values occur.
Compounds were drawn at random from those tested, without regard to their results.
Two or more numbers in one place are separate tests of the same structure; such repeats can differ widely.

Mtb cholesterol medium: 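Whole-cell growth test on Mycobacterium tuberculosis, read after 4 days in a medium based on cholesterol and the lipid DPPC; the read-out is not stated. Compounds at 50 µM. The record gives no direction; compounds that gave an IC50 in retests scored well above the rest, so higher reads as more growth inhibition. Of about 69,000 compounds tested this way, about 370 (0.54%) reached 50% or more in at least one test.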
Mtb glucose medium: 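Growth of Mycobacterium tuberculosis over 3 days (7H9 medium with glucose and tyloxapol); the read-out is not stated. Compounds at 50 µM. Direction is inferred from retests: higher values go with more growth inhibition. About 69,000 compounds were tested under these conditions; 1.1% (about 760) showed 50% or more at least once.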

CCc1noc(CS(=O)(=O)CC=C(C)C)n1 gave Mtb cholesterol medium: 18.3%; Mtb glucose medium: 22.98%.
O=C(C1CN(CC2CC2)CC12CCOCC2)N1CCCC1 (centres undefined) gave Mtb cholesterol medium: 11.26%; Mtb glucose medium: -6.589% & -2.018%.
COc1cccc(-c2noc(-c3ccc(NCC4CC4)nc3)n2)c1OC gave Mtb cholesterol medium: -2.327%; Mtb glucose medium: 18.27%.
[H][C@@]12C[C@H](C)O[C@@]1([H])CCN(C(=O)CCOC)C2 gave Mtb cholesterol medium: -0.1978%; Mtb glucose medium: 13.59%.
O=C(NCCC1COc2ccccc2O1)c1ccc(N2CC(O)C2)nc1 (centres undefined) gave Mtb cholesterol medium: 18.81%; Mtb glucose medium: -19.36%.
COCCN1CCOCC12CCN(c1ccc(C#N)cc1)CC2.O=C(O)C(F)(F)F gave Mtb cholesterol medium: 3.383%; Mtb glucose medium: -4.955% & -17.57%.
O=C(O)C(F)(F)F.O=C(O)C(F)(F)F.c1cc(CN2CCC3(CCOCC3COCC3CC3)CC2)ccn1 (centres undefined) gave Mtb cholesterol medium: -21.02%; Mtb glucose medium: -37.66%.
COc1ccc(N2Cc3nc(=O)n(Cc4cccc(F)c4)n3C2=O)cc1 gave Mtb cholesterol medium: -18.09%; Mtb glucose medium: -12.39%.
O=C(NC1CC1)c1cnc(-c2noc3cc(N4CCCCC4)ccc23)s1 gave Mtb cholesterol medium: 0.9513%; Mtb glucose medium: -29.9% & -3.89%.
O=C(CC1CCCC1)NCCNCc1cccc2c1OCCO2 gave Mtb cholesterol medium: -7.037%; Mtb glucose medium: 3.129% & 9.297%.
CN(Cc1cc(Br)c2c(c1)OCO2)Cc1cscn1 gave Mtb cholesterol medium: 19.31%; Mtb glucose medium: 15.23% & 27.62%.
CC[C@@H](C)[C@H](NC(=O)CCn1cc(C(C)=O)c2ccccc21)C(=O)O gave Mtb cholesterol medium: 22.84%; Mtb glucose medium: 31.47%.
NC(=O)C1CCN(C(=O)c2cc(S(=O)(=O)N3CCCCC3)cs2)CC1 gave Mtb cholesterol medium: -5.29%; Mtb glucose medium: 7.932%.
COCC1CN(Cc2ccc(C)o2)Cc2nnn(CC3CC3)c21.O=C(O)C(F)(F)F (centres undefined) gave Mtb cholesterol medium: -4.346%; Mtb glucose medium: -20.68%.
CC(C)N1C(=O)CC(NC(=O)c2cc(Cl)sc2Cl)C1=O (centres undefined) gave Mtb cholesterol medium: 11.24%; Mtb glucose medium: 8.955%.
c1cnn(Cc2nnc(C3CCN(C4CCOCC4)CC3)n2C2CC2)c1 gave Mtb cholesterol medium: 6.506%; Mtb glucose medium: -12.44%.
COCCNCc1cc2ccc(C)c(C)c2[nH]c1=O gave Mtb cholesterol medium: -11.05% & -11.52%; Mtb glucose medium: -2.024%.
CO[C@@H]1c2ccccc2C2(CCN(C(=O)CNC(=O)C(C)C)CC2)[C@H]1O gave Mtb cholesterol medium: 9.077%; Mtb glucose medium: 6.233%.
COc1cccc(COCC(=O)N2CCN(CC(C)(C)O)CC2)c1 gave Mtb cholesterol medium: 5.578%; Mtb glucose medium: -27.22%.
O=C(c1ccno1)N1C[C@@H](F)[C@@H](OCc2nc3ccccc3o2)C1 gave Mtb cholesterol medium: -3.213%; Mtb glucose medium: -11.08% & 17.15%.
CCc1nnc2n1CCN(Cc1noc(-c3cccc(C)c3)n1)C2 gave Mtb cholesterol medium: -0.05165%; Mtb glucose medium: 0.3227% & 17.08%.
CN(Cc1nnc(C2CC2)n1C)C1CCN(Cc2ccccc2)C1 (centres undefined) gave Mtb cholesterol medium: -8.861% & -45.14%; Mtb glucose medium: -59.53%.
Cc1nnc(-c2ccc(C(=O)Nc3ccnc(N(C)C)n3)cc2)o1 gave Mtb cholesterol medium: -18.64%; Mtb glucose medium: -5.493%.

The last 3 entries again:

structure	Mtb cholesterol medium	Mtb glucose medium
CCc1nnc2n1CCN(Cc1noc(-c3cccc(C)c3)n1)C2	-0.05165%	0.3227% & 17.08%
CN(Cc1nnc(C2CC2)n1C)C1CCN(Cc2ccccc2)C1 (centres undefined)	-8.861% & -45.14%	-59.53%
Cc1nnc(-c2ccc(C(=O)Nc3ccnc(N(C)C)n3)cc2)o1	-18.64%	-5.493%

From ChEMBL document CHEMBL3988442, “University of Dundee, Small-Polar-MMV Screening Library” (2021).